Laboratory results reported in US20090137411A1, “Methods and biochips for detecting small molecule compounds” (priority 2004, published 2009).
At least one structure is not confirmed: it was looked up by name or label, or the drawing left a doubt.

Test system: anti-drug mouse monoclonal antibodies
Assay: Biochip competitive immunoassay for prohibited substances in urine
Type: binding
Conditions: competitive immunoassay on chip

Compound: C[C@]12CC[C@@H]3c4ccc(O)cc4CC[C@H]3[C@@H]1CC[C@@H]2O [Estradiol, estradiol]
- Cutoff value (the 50% inhibitory concentration): 1.5 µg/L
